# The list shows a part of the results.
# Amino acid sequences for entries named in this document (tags omitted). A change or cut given only in a name is not applied to a line headed by its entry.
# UniProt Q68DK7: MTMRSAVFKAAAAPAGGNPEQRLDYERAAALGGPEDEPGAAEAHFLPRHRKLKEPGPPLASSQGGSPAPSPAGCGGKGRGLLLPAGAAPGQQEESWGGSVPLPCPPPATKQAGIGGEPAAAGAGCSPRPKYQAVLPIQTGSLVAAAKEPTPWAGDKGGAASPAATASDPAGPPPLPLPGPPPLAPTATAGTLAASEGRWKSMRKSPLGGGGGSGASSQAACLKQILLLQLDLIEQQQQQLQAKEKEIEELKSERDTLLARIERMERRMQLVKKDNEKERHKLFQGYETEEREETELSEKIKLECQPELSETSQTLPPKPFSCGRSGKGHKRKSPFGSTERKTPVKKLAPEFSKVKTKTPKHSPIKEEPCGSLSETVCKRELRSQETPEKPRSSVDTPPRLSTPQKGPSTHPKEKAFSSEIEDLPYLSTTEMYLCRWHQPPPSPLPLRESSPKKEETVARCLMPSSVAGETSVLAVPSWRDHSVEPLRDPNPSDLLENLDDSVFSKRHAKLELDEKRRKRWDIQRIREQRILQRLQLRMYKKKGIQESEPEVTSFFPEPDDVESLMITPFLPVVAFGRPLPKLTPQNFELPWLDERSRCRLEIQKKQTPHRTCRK
# MTHFD1, A0A384N5Y3, UniProt A0A384N5Y3, whole entry, looked up: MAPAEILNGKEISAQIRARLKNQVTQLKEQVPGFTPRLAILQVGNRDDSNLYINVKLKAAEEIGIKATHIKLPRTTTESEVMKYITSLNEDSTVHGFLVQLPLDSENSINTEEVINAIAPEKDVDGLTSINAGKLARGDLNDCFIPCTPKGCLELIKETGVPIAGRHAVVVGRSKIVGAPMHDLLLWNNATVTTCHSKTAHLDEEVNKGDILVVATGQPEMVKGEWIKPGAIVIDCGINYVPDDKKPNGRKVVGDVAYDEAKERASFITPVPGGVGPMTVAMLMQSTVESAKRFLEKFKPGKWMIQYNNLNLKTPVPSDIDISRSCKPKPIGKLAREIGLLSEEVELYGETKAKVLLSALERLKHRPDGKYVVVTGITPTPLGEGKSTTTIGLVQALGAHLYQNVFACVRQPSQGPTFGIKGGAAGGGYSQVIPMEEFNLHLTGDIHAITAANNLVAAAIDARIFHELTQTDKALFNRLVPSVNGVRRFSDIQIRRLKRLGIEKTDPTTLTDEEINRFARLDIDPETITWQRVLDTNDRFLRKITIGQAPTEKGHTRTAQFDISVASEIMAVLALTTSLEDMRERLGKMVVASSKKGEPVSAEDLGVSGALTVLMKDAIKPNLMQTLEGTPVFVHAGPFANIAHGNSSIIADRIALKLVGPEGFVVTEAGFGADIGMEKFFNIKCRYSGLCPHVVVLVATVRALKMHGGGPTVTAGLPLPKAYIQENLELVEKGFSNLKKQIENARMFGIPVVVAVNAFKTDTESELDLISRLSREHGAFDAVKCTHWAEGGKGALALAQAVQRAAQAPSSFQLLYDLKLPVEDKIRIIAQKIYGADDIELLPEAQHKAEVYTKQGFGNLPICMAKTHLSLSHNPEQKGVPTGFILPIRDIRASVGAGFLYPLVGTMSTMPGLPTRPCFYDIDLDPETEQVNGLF
# UniProt Q03426, whole entry, looked up: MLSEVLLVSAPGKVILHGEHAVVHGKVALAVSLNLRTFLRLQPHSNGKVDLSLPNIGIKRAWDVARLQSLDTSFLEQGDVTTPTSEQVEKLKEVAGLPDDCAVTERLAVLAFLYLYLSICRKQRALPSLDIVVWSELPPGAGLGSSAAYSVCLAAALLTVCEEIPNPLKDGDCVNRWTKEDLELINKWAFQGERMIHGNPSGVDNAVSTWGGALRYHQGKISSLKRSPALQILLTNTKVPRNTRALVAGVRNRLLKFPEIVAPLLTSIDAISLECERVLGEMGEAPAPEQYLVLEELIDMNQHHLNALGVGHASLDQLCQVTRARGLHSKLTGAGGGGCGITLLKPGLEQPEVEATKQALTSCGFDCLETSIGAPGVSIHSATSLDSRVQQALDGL
# UniProt P82909: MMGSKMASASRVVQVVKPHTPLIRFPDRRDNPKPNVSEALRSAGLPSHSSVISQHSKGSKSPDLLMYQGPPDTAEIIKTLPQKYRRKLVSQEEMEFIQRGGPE
# UniProt P35580, whole entry, looked up: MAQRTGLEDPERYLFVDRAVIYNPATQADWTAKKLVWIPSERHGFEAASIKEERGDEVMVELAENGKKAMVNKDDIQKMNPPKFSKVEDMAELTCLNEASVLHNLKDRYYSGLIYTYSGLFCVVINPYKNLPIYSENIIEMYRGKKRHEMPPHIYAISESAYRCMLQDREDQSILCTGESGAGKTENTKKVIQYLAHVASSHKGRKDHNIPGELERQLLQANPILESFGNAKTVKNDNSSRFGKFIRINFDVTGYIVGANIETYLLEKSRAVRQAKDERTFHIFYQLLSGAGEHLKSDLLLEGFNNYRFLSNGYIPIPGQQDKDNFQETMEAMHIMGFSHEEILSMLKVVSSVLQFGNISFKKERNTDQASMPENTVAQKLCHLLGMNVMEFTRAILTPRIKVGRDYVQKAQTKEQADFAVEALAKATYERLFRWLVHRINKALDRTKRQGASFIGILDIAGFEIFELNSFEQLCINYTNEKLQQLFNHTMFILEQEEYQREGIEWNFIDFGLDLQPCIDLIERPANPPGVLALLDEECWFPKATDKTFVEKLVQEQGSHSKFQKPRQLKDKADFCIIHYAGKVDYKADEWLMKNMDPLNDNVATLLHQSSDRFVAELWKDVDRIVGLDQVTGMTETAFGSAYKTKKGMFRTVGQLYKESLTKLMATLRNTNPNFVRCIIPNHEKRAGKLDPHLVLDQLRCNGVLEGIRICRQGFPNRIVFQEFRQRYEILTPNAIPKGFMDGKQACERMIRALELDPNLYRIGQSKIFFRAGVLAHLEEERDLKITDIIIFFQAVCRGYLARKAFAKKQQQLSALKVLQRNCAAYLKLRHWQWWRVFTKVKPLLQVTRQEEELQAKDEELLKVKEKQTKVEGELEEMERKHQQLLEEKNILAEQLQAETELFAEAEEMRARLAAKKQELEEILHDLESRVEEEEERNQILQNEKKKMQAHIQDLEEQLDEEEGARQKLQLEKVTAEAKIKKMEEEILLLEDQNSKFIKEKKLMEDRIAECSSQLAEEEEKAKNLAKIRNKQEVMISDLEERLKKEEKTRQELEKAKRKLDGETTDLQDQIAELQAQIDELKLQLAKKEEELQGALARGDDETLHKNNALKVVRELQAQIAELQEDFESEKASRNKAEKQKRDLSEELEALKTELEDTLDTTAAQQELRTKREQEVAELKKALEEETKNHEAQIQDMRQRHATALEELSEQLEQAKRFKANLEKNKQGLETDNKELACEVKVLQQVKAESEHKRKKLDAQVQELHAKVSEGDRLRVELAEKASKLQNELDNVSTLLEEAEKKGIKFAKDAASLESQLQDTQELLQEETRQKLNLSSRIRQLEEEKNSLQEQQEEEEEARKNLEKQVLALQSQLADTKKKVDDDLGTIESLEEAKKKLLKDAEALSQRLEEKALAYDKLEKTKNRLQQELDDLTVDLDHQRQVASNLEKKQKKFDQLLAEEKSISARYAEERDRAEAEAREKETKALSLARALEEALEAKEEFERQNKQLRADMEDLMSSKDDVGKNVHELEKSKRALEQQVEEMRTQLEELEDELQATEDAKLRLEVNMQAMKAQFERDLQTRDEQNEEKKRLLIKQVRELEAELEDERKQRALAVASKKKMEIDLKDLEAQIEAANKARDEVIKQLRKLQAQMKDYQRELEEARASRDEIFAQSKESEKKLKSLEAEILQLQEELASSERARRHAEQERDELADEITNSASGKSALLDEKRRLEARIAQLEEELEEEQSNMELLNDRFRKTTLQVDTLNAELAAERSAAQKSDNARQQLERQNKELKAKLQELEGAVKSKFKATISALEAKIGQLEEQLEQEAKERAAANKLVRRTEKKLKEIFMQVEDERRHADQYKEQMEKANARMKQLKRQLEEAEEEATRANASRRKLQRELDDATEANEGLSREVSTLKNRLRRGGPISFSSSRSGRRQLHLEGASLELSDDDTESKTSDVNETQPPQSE
# UniProt Q9NZJ7, whole entry, looked up: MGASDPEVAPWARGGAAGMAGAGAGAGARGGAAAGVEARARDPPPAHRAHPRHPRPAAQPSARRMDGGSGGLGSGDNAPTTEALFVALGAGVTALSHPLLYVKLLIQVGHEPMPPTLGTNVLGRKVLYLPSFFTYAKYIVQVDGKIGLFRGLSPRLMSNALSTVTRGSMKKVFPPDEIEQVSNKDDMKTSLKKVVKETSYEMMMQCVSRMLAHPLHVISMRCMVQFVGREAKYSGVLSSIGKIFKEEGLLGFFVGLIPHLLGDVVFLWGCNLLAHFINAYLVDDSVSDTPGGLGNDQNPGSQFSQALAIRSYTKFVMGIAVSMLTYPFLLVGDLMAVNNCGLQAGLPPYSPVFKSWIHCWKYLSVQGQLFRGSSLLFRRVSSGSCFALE
# UniProt Q9NVV4: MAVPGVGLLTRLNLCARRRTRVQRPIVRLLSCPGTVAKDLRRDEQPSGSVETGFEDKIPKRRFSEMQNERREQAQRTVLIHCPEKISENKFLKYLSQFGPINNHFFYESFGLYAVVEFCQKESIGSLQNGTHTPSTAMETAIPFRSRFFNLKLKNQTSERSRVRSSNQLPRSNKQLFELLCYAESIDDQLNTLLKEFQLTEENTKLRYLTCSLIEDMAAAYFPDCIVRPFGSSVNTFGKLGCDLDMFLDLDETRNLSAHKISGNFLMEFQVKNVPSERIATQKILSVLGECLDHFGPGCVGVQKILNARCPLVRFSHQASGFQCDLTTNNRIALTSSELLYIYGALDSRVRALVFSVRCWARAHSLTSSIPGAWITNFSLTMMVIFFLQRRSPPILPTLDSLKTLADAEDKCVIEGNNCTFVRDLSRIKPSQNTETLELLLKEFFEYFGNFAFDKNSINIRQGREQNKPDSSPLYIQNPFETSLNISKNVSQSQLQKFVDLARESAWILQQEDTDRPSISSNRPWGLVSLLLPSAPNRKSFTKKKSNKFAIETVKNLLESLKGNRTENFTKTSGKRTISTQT
# UniProt P11586, whole entry, looked up: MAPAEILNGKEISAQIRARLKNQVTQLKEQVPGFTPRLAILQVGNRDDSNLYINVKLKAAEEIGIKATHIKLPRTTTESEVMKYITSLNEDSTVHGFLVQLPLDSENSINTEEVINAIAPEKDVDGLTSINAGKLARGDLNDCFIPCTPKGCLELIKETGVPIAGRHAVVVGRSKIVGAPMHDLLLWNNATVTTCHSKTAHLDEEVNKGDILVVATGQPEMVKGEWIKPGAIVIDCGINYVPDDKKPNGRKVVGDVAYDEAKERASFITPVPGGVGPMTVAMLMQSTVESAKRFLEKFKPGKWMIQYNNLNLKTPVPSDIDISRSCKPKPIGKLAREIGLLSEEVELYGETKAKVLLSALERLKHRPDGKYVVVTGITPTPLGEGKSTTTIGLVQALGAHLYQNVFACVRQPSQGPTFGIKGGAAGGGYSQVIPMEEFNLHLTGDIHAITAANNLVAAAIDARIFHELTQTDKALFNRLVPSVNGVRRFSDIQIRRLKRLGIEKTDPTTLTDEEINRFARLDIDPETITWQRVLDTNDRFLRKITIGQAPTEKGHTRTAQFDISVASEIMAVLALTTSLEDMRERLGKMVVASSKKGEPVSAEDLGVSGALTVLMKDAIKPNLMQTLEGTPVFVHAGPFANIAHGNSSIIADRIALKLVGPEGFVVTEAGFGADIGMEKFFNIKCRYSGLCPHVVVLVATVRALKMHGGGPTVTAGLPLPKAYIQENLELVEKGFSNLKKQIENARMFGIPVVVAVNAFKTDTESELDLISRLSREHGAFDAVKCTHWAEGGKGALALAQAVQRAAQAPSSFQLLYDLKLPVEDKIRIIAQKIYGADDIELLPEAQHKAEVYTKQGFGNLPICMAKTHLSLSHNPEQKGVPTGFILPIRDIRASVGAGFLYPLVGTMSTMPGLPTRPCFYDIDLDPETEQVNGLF
# UniProt Q969H8: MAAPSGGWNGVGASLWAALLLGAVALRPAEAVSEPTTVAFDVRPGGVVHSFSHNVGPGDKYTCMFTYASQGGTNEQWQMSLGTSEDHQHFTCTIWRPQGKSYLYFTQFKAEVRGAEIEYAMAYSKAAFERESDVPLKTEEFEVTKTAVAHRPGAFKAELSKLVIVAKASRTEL
# UniProt P00156: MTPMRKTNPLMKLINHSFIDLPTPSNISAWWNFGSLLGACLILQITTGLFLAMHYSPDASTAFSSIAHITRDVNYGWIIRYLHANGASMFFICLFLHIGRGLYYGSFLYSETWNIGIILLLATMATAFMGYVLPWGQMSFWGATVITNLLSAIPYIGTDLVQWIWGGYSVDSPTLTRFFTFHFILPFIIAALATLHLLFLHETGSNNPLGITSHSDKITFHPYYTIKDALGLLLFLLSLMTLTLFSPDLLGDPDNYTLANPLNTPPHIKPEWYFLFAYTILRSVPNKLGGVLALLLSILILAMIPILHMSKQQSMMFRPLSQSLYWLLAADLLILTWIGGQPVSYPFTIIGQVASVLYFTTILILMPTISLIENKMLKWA
# Tests used:
# Assay in all cases: log2 fold change, soluble protein after heating vs DMSO (PISA); higher = thermal stabilisation; K562 cells, 10 uM, 30 min; active = over 0.2 and 3.5 SD of the protein, either way, in both replicates (recomputed)
# [1] = compound: NC(=O)Nc1cc(-c2cccc(F)c2)sc1C(=O)N[C@H]1CCCNC1
# Method in brief: (§1)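 Soluble protein was defined as the supernatant after 21,000xg for 90 min. It came from K562 cells at 2×10^6 cells/mL given 10 μM compound for 30 min, heated in aliquots for 3 min across 48°C-58°C, pooled, and extracted in PBS with 0.5% NP-40 at 4°C, and was quantified by TMTpro 16plex LC-MS/MS with equalised channel sums. Thermal stability against control samples, from duplicates, is reported as log2 fold change.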
# [2] = compound: NC(=O)c1cnc(N[C@@H]2CCCC[C@@H]2N)nc1Nc1cccc(-n2nccn2)c1
# Method in brief: as §1
# [3] = compound: NC1(c2ccc(-c3nc4ccn5c(=O)[nH]nc5c4cc3-c3ccccc3)cc2)CCC1
# Method in brief: as §1
# [4] = compound: NCC(=O)Nc1ccc(-n2nc(C(F)(F)F)cc2-c2ccc3c(ccc4ccccc43)c2)cc1
# Method in brief: as §1
# entinostat = compound: Nc1ccccc1NC(=O)c1ccc(CNC(=O)OCc2cccnc2)cc1 [entinostat]
# Method in brief: as §1
# vorinostat = compound: O=C(CCCCCCC(=O)Nc1ccccc1)NO [vorinostat]
# Method in brief: as §1
# citarinostat = compound: O=C(CCCCCCNC(=O)c1cnc(N(c2ccccc2)c2ccccc2Cl)nc1)NO [citarinostat]
# Method in brief: as §1
# silmitasertib = compound: O=C(O)c1ccc2c(c1)nc(Nc1cccc(Cl)c1)c1ccncc12 [silmitasertib]
# Method in brief: as §1
# [5] = compound: O=C1NC(=O)C(c2cnc3ccccn23)=C1c1cn2c3c(cc(F)cc13)CN(C(=O)N1CCCCC1)CC2
# Method in brief: as §1
# [6] = compound: c1cc(OCCN2CCCCC2)cc(-c2n[nH]c3ccc(-c4nnc[nH]4)cc23)c1
# Method in brief: as §1
Target,log2 fold change [1],log2 fold change [2],log2 fold change [3],log2 fold change [4],log2 fold change (entinostat),log2 fold change (vorinostat),log2 fold change (citarinostat),log2 fold change (silmitasertib),log2 fold change [5],log2 fold change [6]
MSL1 (UniProt Q68DK7),inactive: -0.032,inactive: -0.085,inactive: -0.024,inactive: -0.036,inactive: 0.016,inactive: 0.104,inactive: 0.047,inactive: -0.152,inactive: -0.153,inactive: 0.017
"MTHFD1, A0A384N5Y3",inactive: -0.048,inactive: -0.033,inactive: 0.17,inactive: -0.077,inactive: -0.059,inactive: 0.013,inactive: 0.024,inactive: -0.091,inactive: -0.056,inactive: 0.041
MTMR1 (UniProt Q13613),inactive: 0.067,inactive: -0.139,inactive: 0.023,inactive: -0.052,inactive: 0.067,inactive: 0.089,inactive: -0.177,inactive: 0.011,inactive: 0.142,inactive: -0.113
MVK (UniProt Q03426),inactive: -0.031,inactive: -0.02,inactive: -0.04,inactive: -0.005,inactive: -0.042,inactive: 0.031,inactive: 0.036,inactive: 0.044,inactive: -0.033,inactive: -0.063
MRPS10 (UniProt P82664),inactive: -0.014,inactive: 0.004,inactive: -0.052,inactive: 0.011,inactive: -0.033,inactive: 0.057,inactive: 0.07,inactive: -0.048,inactive: 0,inactive: -0.08
MRPS15 (UniProt P82914),inactive: 0.039,inactive: 0.06,inactive: -0.057,inactive: 0.119,inactive: 0.072,inactive: 0.077,inactive: 0.028,inactive: -0.114,inactive: 0.085,inactive: -0.031
MRPS24 (UniProt Q96EL2),inactive: -0.015,inactive: -0.016,inactive: -0.021,inactive: -0.086,inactive: 0.001,inactive: 0.04,inactive: -0.053,inactive: -0.096,inactive: -0.074,inactive: -0.105
MRPS36 (UniProt P82909),inactive: -0.041,inactive: -0.03,inactive: 0.095,inactive: -0.035,inactive: -0.024,inactive: -0.034,inactive: -0.077,inactive: -0.115,inactive: -0.033,inactive: 0.059
MYH10 isoform 3 (UniProt P35580),inactive: 0.014,inactive: -0.026,inactive: -0.102,inactive: -0.035,inactive: 0.019,inactive: 0.004,inactive: 0.041,inactive: -0.008,inactive: -0.036,inactive: 0.013
MRPS22 (UniProt P82650),inactive: -0.008,inactive: 0.031,inactive: -0.098,inactive: 0.006,inactive: 0.027,inactive: 0.131,inactive: 0.035,inactive: -0.071,inactive: -0.069,inactive: -0.006
MRTFA (UniProt Q969V6),inactive: -0.151,inactive: -0.197,inactive: -0.027,inactive: 0.105,inactive: -0.025,inactive: 0.056,inactive: 0.116,inactive: 0.007,inactive: -0.034,inactive: 0.015
"MUC1, A0A087WWM1",inactive: 0.038,inactive: 0.124,inactive: -0.095,inactive: 0,inactive: 0.01,inactive: 0.01,inactive: 0.07,inactive: 0.055,inactive: 0.03,inactive: -0.097
MRPS7 (UniProt Q9Y2R9),inactive: -0.001,inactive: 0.002,inactive: -0.013,inactive: 0.081,inactive: 0.029,inactive: 0.042,inactive: 0.012,inactive: -0.096,inactive: 0.021,inactive: -0.11
MTCH1 (UniProt Q9NZJ7),inactive: -0.016,inactive: -0.052,inactive: -0.035,inactive: 0.009,inactive: -0.022,inactive: -0.013,inactive: 0.028,inactive: 0.003,inactive: -0.021,inactive: -0.031
MTX2 (UniProt O75431),inactive: -0.014,inactive: 0.032,inactive: 0.013,inactive: -0.005,inactive: -0.03,inactive: -0.072,inactive: 0.033,inactive: -0.023,inactive: -0.109,inactive: -0.079
MYADM (UniProt Q96S97),inactive: 0,inactive: -0.112,inactive: 0.003,inactive: -0.041,inactive: 0.09,inactive: 0.036,inactive: 0.045,inactive: 0.054,inactive: 0.117,inactive: -0.106
MRRF (UniProt Q96E11),inactive: -0.026,inactive: -0.024,inactive: -0.004,inactive: 0.029,inactive: 0.024,inactive: -0.043,inactive: 0.07,inactive: 0.036,inactive: -0.067,inactive: 0.019
MTPAP (UniProt Q9NVV4),inactive: 0,inactive: 0.075,inactive: 0.105,inactive: -0.023,inactive: 0.008,inactive: 0.173,inactive: -0.021,inactive: 0.074,inactive: 0.1,inactive: -0.093
MTHFR isoform 2 (UniProt P42898),inactive: -0.04,inactive: -0.092,inactive: -0.046,inactive: -0.063,inactive: -0.009,inactive: -0.054,inactive: -0.045,inactive: -0.007,inactive: -0.038,inactive: 0.128
MYO18A (UniProt Q92614),inactive: -0.05,inactive: -0.042,inactive: 0.114,inactive: 0.015,inactive: -0.06,inactive: 0.02,inactive: -0.206,inactive: 0.002,inactive: 0.015,inactive: 0.016
MRPS27 isoform 2 (UniProt Q92552),inactive: 0.067,inactive: -0.015,inactive: -0.105,inactive: -0.007,inactive: 0.011,inactive: 0.104,inactive: 0.08,inactive: -0.04,inactive: 0.049,inactive: -0.012
MTSS2 (UniProt Q765P7),inactive: 0.117,inactive: -0.036,inactive: -0.03,inactive: 0.001,inactive: -0.025,inactive: 0,inactive: -0.072,inactive: -0.019,inactive: -0.144,inactive: 0.102
MYL6B (UniProt P14649),inactive: -0.02,inactive: -0.024,inactive: -0.031,inactive: 0.01,inactive: 0,inactive: 0.005,inactive: 0.007,inactive: 0.028,inactive: -0.04,inactive: -0.015
MSH6 (UniProt P52701),inactive: -0.033,inactive: -0.091,inactive: -0.213,inactive: -0.191,inactive: 0.229,inactive: 0.273,inactive: 0.347,inactive: 0.14,inactive: -0.169,inactive: 0.097
MTOR (UniProt P42345),inactive: -0.016,inactive: -0.102,active: -0.315,inactive: -0.111,inactive: 0.042,inactive: 0.049,inactive: 0.035,inactive: 0.102,inactive: -0.065,inactive: -0.004
MVB12A (UniProt Q96EY5),inactive: -0.021,inactive: -0.125,inactive: -0.138,inactive: 0.063,inactive: -0.006,inactive: 0.214,inactive: 0.029,inactive: 0.033,inactive: -0.08,inactive: -0.049
MTHFD1 (UniProt P11586),inactive: -0.028,inactive: -0.011,inactive: 0.094,inactive: -0.028,inactive: 0.024,inactive: 0.05,inactive: 0.051,inactive: -0.039,inactive: -0.042,inactive: -0.021
MSH3 (UniProt P20585),inactive: -0.175,inactive: -0.001,inactive: -0.126,inactive: -0.007,inactive: -0.032,inactive: -0.017,inactive: 0.031,inactive: 0.034,inactive: -0.069,inactive: -0.019
MYDGF (UniProt Q969H8),inactive: -0.043,inactive: -0.025,inactive: -0.01,inactive: 0.014,inactive: -0.016,inactive: -0.041,inactive: 0.023,inactive: -0.004,inactive: -0.03,inactive: -0.029
MT-CYB (UniProt P00156),inactive: -0.112,inactive: -0.063,inactive: 0.109,inactive: 0.024,inactive: -0.007,inactive: 0.075,inactive: 0.076,inactive: 0.113,inactive: 0.189,inactive: -0.372

# Only log2 fold change (silmitasertib), log2 fold change (citarinostat) and log2 fold change (entinostat), for some of the entries so far:
Target	log2 fold change (silmitasertib)	log2 fold change (citarinostat)	log2 fold change (entinostat)
MYO18A (UniProt Q92614)	inactive: 0.002	inactive: -0.206	inactive: -0.06
MRPS27 isoform 2 (UniProt Q92552)	inactive: -0.04	inactive: 0.08	inactive: 0.011

# From the supplement of paper PMC10849652
